# In the supplement of paper PMC12819154, “High-throughput peptide-centric local stability assay extends protein–ligand identification to membrane proteins, tissues and bacteria” (Nature Structural & Molecular Biology, 2025):
# Protein sequences, listed by entry. Tags and fused reporters are not part of them. Lines headed by an entry give the natural chain unless they say otherwise; changes in a name come on top.
# UniProt Q9ET26: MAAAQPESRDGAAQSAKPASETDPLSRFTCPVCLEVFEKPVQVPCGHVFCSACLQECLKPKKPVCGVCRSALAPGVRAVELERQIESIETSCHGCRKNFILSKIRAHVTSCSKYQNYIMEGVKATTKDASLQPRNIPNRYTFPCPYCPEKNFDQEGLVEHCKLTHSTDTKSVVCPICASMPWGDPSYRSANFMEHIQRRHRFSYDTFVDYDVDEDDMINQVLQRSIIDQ
# UniProt Q9JHU2: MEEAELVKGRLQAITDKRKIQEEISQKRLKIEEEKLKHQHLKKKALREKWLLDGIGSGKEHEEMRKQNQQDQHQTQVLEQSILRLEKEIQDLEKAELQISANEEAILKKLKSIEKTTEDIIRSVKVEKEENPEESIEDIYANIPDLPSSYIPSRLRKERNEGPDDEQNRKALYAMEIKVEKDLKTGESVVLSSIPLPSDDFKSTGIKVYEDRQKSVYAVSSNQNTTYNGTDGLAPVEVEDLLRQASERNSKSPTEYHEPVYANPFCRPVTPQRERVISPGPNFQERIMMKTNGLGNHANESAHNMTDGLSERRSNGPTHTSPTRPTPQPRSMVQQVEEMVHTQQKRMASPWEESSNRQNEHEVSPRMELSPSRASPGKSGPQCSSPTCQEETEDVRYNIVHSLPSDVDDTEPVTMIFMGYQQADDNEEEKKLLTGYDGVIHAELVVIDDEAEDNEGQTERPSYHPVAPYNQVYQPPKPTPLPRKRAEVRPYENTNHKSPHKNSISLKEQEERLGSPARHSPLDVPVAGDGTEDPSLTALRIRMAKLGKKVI
# UniProt Q9JLB0: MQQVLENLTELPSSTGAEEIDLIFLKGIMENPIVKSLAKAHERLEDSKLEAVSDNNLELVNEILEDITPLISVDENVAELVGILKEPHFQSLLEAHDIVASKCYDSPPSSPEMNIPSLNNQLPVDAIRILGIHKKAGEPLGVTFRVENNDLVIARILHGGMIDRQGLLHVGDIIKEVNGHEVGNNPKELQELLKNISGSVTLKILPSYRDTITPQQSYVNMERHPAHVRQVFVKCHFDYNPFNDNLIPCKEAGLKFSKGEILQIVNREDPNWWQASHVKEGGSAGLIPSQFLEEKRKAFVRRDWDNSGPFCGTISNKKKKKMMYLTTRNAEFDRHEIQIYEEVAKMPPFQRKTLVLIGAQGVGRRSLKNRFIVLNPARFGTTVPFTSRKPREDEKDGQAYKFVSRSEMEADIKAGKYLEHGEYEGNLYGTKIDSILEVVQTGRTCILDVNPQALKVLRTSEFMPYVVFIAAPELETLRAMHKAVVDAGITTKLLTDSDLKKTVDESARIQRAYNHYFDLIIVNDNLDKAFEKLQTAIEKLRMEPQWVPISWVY
# UniProt Q9QWH1: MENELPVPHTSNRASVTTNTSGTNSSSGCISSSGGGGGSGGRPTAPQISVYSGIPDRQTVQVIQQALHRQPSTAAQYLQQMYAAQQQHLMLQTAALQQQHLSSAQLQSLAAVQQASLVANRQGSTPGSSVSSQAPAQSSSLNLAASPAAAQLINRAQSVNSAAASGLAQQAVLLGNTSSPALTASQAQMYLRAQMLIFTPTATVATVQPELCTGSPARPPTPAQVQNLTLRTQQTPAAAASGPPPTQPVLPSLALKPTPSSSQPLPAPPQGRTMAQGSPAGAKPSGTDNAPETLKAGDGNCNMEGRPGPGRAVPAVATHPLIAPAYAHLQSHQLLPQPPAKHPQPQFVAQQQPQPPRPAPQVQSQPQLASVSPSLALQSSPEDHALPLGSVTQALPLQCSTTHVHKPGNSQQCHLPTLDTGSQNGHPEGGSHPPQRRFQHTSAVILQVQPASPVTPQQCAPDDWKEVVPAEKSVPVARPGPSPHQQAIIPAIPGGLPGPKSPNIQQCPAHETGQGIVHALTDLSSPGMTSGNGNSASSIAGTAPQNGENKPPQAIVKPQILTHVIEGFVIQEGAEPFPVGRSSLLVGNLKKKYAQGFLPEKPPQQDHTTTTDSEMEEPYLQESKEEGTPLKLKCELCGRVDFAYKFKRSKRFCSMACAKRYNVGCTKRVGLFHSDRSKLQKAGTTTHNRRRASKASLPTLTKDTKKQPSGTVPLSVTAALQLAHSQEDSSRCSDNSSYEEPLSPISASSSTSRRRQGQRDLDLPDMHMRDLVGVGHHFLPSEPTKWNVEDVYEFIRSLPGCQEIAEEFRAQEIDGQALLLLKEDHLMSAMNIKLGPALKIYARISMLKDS
# UniProt Q9QUI0, whole entry: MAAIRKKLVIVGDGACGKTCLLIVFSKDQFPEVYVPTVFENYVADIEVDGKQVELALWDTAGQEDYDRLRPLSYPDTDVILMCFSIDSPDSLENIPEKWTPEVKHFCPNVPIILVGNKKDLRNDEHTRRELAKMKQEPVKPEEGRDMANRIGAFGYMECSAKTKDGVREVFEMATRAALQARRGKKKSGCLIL
# UniProt Q9JJA7: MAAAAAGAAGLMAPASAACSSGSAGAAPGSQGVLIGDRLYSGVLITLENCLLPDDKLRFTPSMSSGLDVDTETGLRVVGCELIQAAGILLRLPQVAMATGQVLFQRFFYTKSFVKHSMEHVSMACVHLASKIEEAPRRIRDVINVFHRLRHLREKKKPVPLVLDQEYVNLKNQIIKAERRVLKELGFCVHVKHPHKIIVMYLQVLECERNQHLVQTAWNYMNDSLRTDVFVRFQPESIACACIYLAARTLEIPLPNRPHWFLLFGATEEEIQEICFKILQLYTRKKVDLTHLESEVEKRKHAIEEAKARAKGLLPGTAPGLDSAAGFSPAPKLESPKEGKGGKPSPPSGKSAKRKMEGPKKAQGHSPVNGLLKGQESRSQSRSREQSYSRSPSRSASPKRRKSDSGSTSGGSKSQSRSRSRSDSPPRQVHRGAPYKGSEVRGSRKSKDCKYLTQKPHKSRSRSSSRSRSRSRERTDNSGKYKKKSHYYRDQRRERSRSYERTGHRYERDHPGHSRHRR
# UniProt Q9QUR7, whole entry: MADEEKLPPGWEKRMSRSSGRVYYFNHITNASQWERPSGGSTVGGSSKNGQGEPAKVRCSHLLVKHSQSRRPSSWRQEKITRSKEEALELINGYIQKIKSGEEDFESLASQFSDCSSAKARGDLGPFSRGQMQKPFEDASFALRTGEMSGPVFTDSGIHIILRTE
# UniProt Q9QWK4: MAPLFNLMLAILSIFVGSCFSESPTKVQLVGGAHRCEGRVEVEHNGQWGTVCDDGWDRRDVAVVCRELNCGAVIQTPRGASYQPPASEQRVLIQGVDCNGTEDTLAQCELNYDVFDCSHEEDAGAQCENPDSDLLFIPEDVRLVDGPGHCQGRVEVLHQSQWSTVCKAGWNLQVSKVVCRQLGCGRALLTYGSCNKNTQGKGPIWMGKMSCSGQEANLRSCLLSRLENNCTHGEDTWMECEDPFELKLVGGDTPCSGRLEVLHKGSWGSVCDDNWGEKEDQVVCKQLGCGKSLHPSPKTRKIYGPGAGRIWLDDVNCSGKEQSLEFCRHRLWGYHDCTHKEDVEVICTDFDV
# UniProt Q9JKC8: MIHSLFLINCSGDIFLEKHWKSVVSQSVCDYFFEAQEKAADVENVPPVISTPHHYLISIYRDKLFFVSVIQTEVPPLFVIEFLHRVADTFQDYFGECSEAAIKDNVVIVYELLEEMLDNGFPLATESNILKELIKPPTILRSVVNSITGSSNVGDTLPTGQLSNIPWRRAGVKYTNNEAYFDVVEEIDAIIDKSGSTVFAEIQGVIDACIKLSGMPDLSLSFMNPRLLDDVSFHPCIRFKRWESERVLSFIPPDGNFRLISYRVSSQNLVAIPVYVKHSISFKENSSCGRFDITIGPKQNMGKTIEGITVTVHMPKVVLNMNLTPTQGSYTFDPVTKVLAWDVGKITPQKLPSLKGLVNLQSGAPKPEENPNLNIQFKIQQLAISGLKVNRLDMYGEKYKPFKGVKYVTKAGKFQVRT
# UniProt Q9EST5: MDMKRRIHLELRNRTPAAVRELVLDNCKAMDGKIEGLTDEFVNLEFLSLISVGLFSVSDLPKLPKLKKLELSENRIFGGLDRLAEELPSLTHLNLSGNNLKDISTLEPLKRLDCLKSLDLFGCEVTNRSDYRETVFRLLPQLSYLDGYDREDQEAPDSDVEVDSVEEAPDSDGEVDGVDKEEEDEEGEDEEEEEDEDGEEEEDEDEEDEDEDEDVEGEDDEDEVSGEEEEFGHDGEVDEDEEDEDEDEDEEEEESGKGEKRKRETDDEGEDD
# UniProt Q9JL15: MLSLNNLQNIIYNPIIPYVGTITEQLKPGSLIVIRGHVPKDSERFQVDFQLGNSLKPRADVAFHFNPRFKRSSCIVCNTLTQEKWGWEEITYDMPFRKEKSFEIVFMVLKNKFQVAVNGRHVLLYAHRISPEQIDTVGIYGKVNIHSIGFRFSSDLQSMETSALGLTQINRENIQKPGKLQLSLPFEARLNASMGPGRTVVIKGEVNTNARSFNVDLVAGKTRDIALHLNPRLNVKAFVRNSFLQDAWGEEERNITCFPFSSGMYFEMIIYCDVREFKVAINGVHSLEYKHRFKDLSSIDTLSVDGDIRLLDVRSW
# The list shows a part of the results. Small differences around the control level are noise.
# Compound: CN[C@@H]1C[C@H]2O[C@@](C)([C@@H]1OC)n1c3ccccc3c3c4c(c5c6ccccc6n2c5c31)C(=O)NC4 [staurosporine]
# Assay: log2 fold change of tryptic peptide abundance, ligand vs vehicle (limited proteolysis) (log2 ratio); higher = more trypsin-susceptible (destabilized)
# Details: ligand concentration: 20 uM; sample: mouse liver crude lysate; replicate design: treated separately
row,Target,log2 fold change
1,"UniProt Q9ET26 (peptide sequence: DGAAQSAKPASETDPLSR, peptide start residue: 10)",-0.123
2,"UniProt Q9JHU2 (peptide sequence: KALYAMEIK, peptide start residue: 170)",-0.396
3,"UniProt Q9JLB0 (peptide sequence: KAGEPLGVTFR, peptide start residue: 135)",0.272
4,"UniProt Q9QWH1 (peptide sequence: DLDLPDMHMR, peptide start residue: 760)",-0.243
5,"UniProt Q9QUI0 (peptide sequence: MKQEPVKPEEGR, peptide start residue: 134)",0.15
6,"UniProt Q9JJA7 (peptide sequence: HSMEHVSMACVHLASK, peptide start residue: 116)",-0.304
7,"UniProt Q9QUR7 (peptide sequence: NGQGEPAKVRCSHLLVK, peptide start residue: 49)",0.406
8,"UniProt Q9QWK4 (peptide sequence: VEVLHQSQWSTVCK, peptide start residue: 154)",-0.562
9,"UniProt Q9JKC8 (peptide sequence: ITPQKLPSLK, peptide start residue: 346)",-0.387
10,"UniProt Q9EST5 (peptide sequence: DISTLEPLKR, peptide start residue: 102)",0.114
11,"UniProt Q9JL15 (peptide sequence: ENIQKPGK, peptide start residue: 172)",0.102

# A different layout for some results above.
row | Target | log2 fold change
6 | UniProt Q9JJA7 (peptide sequence: HSMEHVSMACVHLASK, peptide start residue: 116) | -0.304
9 | UniProt Q9JKC8 (peptide sequence: ITPQKLPSLK, peptide start residue: 346) | -0.387
